Source: paper PMC7819943, “Rice protein-binding microarrays: a tool to detect cis-acting elements near promoter regions in rice”
Some of the results follow.

biological target: T1, OsSMF1 (Oryza sativa, UniProt Q6ZLB0 1-436); test: protein-binding microarray (RPBM); PBS, 2% BSA, 51.3 ng/ul salmon testes DNA, 50 uM zinc acetate, 200 nM TF, 25 C, 1 h; high values mean tight binding; details: protein: recombinant; tags: N-terminal polyhistidine and DsRed monomer fusion (pET32a); chain copies: 2; label: CyDye5-dUTP incorporated in the synthesized complementary strand; 3' TTTTT single-stranded linker to array surface; dsDNA, one strand shown
T1 sequence: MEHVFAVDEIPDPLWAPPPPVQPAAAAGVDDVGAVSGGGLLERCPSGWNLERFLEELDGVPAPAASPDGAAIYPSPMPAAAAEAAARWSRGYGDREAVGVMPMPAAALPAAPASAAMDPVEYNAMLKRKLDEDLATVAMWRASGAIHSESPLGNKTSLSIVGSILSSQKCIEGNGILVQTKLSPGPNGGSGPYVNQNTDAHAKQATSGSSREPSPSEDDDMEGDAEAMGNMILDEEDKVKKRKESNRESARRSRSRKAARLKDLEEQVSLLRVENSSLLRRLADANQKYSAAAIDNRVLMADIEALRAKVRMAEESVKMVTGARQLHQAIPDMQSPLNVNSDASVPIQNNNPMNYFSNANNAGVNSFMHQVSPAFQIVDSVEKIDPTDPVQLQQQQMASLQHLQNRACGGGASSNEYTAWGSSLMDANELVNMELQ
In short: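 The binding signal is fluorescence intensity per array feature (arbitrary units). Readings came from an Axon 4000B scanner after a washed, 2% BSA-blocked, double-stranded custom Agilent array had been incubated for 1 h at 25 °C with 200 nM protein and 50 µM zinc acetate. The protein was a Ni–NTA-purified transcription factor fused N-terminally to polyhistidine and DsRed, expressed in E. coli BL21-CodonPlus.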

Row | Sequence | binding signal
1 | TTTAACAGACGTTAATCATGCATCCACCAATGGCTACGGACGGAGTCACCTAGTGCAG | 3250 fluorescence intensity (a.u.)
2 | CGGGAGAGAGATCAGATGCGGCATGGCGTGGCCGTGGCGTCGGAGTCACCTAGTGCAG | 3380 fluorescence intensity (a.u.)
3 | ATCCTTCCAGGCTTTCCAGCCCACCGCTCCACCGATCTCGCGGAGTCACCTAGTGCAG | 3190 fluorescence intensity (a.u.)
4 | AGAGCTTGTGTGGTGGTGGGGCATCAGTGTGTCAGTTGTGCGGAGTCACCTAGTGCAG | 3970 fluorescence intensity (a.u.)
5 | CATTTGCCATATCGGCTCAATCAAACTCTGACTTTGTTTCCGGAGTCACCTAGTGCAG | 3180 fluorescence intensity (a.u.)
6 | CTAGTAACCAATACAATCACAAGCTACCTGAACGGTTTCTCGGAGTCACCTAGTGCAG | 4030 fluorescence intensity (a.u.)
7 | TGTTGGTTCGCCGTGGTGGCTGACAGGGATCCGGGTGAAGCGGAGTCACCTAGTGCAG | 3670 fluorescence intensity (a.u.)
8 | ATGGTTTGACGCAGCCCCGTCCTGTTGACTCACCTGACCGCGGAGTCACCTAGTGCAG | 5590 fluorescence intensity (a.u.)
9 | AACAACGATTATGTGTTTGATCACCCGCCCACATCATGCGCGGAGTCACCTAGTGCAG | 4230 fluorescence intensity (a.u.)
10 | CGTCGGCGAAGAGAGGAGATAGAGGTGGAGGAAGTGGGTTCGGAGTCACCTAGTGCAG | 4180 fluorescence intensity (a.u.)
11 | GAAGGCTGGCGTGGCACGTAGTTGCGTTTTGCCGTTTTGGCGGAGTCACCTAGTGCAG | 11800 fluorescence intensity (a.u.)
12 | ATCAAATCAGTCACACGTCACATTTGCAGTATAGAGTAGCCGGAGTCACCTAGTGCAG | 14500 fluorescence intensity (a.u.)
13 | CCTTGAAAATGATACATTCTACTCATCAAACCCCAACAAACGGAGTCACCTAGTGCAG | 3500 fluorescence intensity (a.u.)
14 | GCGTCGTCCTCGACTCCTCCGCCACCCGCCTGCTCCATCTCGGAGTCACCTAGTGCAG | 36900 fluorescence intensity (a.u.)
15 | GATGTGACACATCCTAGTACAACGTCATATCTAACCTAAACGGAGTCACCTAGTGCAG | 4950 fluorescence intensity (a.u.)
16 | AAAGGAGTTGCTAGCAGAGGTGAAATATCGTCATGTCGAACGGAGTCACCTAGTGCAG | 3200 fluorescence intensity (a.u.)
17 | GTGGCACGGTTACAATTTTGTAAAATTTCAGTGTCATGGCCGGAGTCACCTAGTGCAG | 3760 fluorescence intensity (a.u.)
18 | ACAACACCCTTTTGTCTGCCAGCTCACCTCTTCAAACGTTCGGAGTCACCTAGTGCAG | 7320 fluorescence intensity (a.u.)
19 | GCACCGAAAGGCGAATCTAAGCGCGTCCAGCGTAAGCATCCGGAGTCACCTAGTGCAG | 4920 fluorescence intensity (a.u.)
20 | CCGACATCCGACGGATAGGATAGTTGGATGATGATGTGGACGGAGTCACCTAGTGCAG | 8660 fluorescence intensity (a.u.)
21 | CTGCAGATTCATTGTTACTAGTCTTAGTCATACTTGTTACCGGAGTCACCTAGTGCAG | 3920 fluorescence intensity (a.u.)
22 | CTTTTCGCCATTCAAGGAATTACCTCGTGGGCTATATGTACGGAGTCACCTAGTGCAG | 3330 fluorescence intensity (a.u.)
23 | TTTGTAACTAAGCGGTGTCACTCCTCAAAGCTACACAAGCCGGAGTCACCTAGTGCAG | 3550 fluorescence intensity (a.u.)
24 | TATTGGGCTTGAGGTTTTGTGGCCCGTAAAGGGAGGGGTGCGGAGTCACCTAGTGCAG | 3290 fluorescence intensity (a.u.)
25 | AAATAAATAAAAGTCTTCTGCATTTTCCTGGTATATATTCCGGAGTCACCTAGTGCAG | 8620 fluorescence intensity (a.u.)
26 | ACGACCACTTCCGCGACGAGATCACCGTAGCGTTACAGCACGGAGTCACCTAGTGCAG | 3150 fluorescence intensity (a.u.)
27 | AGCAGCTGCCTCAAGGTAATTCAGCACTCTGGTATTGGCACGGAGTCACCTAGTGCAG | 22700 fluorescence intensity (a.u.)

Shown as a markdown table: entries from further up.

| Row | Sequence | binding signal |
| --- | --- | --- |
| 6 | CTAGTAACCAATACAATCACAAGCTACCTGAACGGTTTCTCGGAGTCACCTAGTGCAG | 4030 fluorescence intensity (a.u.) |
| 26 | ACGACCACTTCCGCGACGAGATCACCGTAGCGTTACAGCACGGAGTCACCTAGTGCAG | 3150 fluorescence intensity (a.u.) |

More records follow.

Row | Sequence | binding signal
28 | GCCGCCGTCTCGCGCCGCCACCTCCGCCTCGCGCCGCCACCGGAGTCACCTAGTGCAG | 3350 fluorescence intensity (a.u.)
29 | TCGAACCCGCTCCAAGTCCTGTACCTCGCCGTACGTCAGCCGGAGTCACCTAGTGCAG | 4420 fluorescence intensity (a.u.)
30 | TATAAACAACTTTTCTCGTCATGACTAACTTCCCTTTCGGCGGAGTCACCTAGTGCAG | 4020 fluorescence intensity (a.u.)
31 | CTTCAGCCAAGTCACAGCGGCCTCGGCTTCTTGCAGCTCGCGGAGTCACCTAGTGCAG | 3350 fluorescence intensity (a.u.)
32 | GGTTGGATAGCGCTTGTGGTGTGGGCAGGGTTTACACAGACGGAGTCACCTAGTGCAG | 3150 fluorescence intensity (a.u.)
33 | CGACAGCAACCACGGGACGATTTCATCATCGTGTGTGCACCGGAGTCACCTAGTGCAG | 3840 fluorescence intensity (a.u.)
34 | AACTACACACAAAGCCGAGCCAAAGTCTCTAGGTCAAAGTCGGAGTCACCTAGTGCAG | 20600 fluorescence intensity (a.u.)
35 | CGCGGCACGGGGAGACGACACGTCGGATGGTTGGCAGGAGCGGAGTCACCTAGTGCAG | 16400 fluorescence intensity (a.u.)
36 | TGTTTTGTTTCCCTCAGCGTATGTAATCATGACTATTACCCGGAGTCACCTAGTGCAG | 3420 fluorescence intensity (a.u.)
37 | TCATAAAAGGCTGTGTTTAAATCCAAAATTTGGATCCAAACGGAGTCACCTAGTGCAG | 3270 fluorescence intensity (a.u.)
38 | CCCCGTTCGATCTGACAATACGCCATGTCACCTAACAAGACGGAGTCACCTAGTGCAG | 4630 fluorescence intensity (a.u.)
39 | CGGTTTGACCAGCCACATGCTGCTGATTAGACCAGCCCTACGGAGTCACCTAGTGCAG | 3290 fluorescence intensity (a.u.)
40 | AGCTTCATGCATGGTAAGCCGCATGAGGATGGTGTAGTATCGGAGTCACCTAGTGCAG | 3360 fluorescence intensity (a.u.)
41 | GTCGCCAAGGAATCATCCATGACGTCAGTCGCCGAGCCGTCGGAGTCACCTAGTGCAG | 17300 fluorescence intensity (a.u.)
42 | GCTAGTATTTTGGTATGTCATCCGTGTATCACAGTAGGTTCGGAGTCACCTAGTGCAG | 4610 fluorescence intensity (a.u.)
43 | CGCAAGAAACATGACTGTTCTTGTGTAGTCTACTGTAAATCGGAGTCACCTAGTGCAG | 3560 fluorescence intensity (a.u.)
44 | ACCCTCCTGGCCTCCTCGGCGCCACCCGTTGCCCGCCGCGCGGAGTCACCTAGTGCAG | 3160 fluorescence intensity (a.u.)
45 | CAACATAGTATCGGATGTGACACATCCTAATACTATAAATCGGAGTCACCTAGTGCAG | 3170 fluorescence intensity (a.u.)
46 | ACTCGTGGAGCCGGTGATGACGTGCCCAAGCTAGAGACAGCGGAGTCACCTAGTGCAG | 7230 fluorescence intensity (a.u.)
47 | GCGCTGACGTGTCGCTATCCTACTGGAACACACCACGTCACGGAGTCACCTAGTGCAG | 46500 fluorescence intensity (a.u.)
48 | TAATCTAGTATCAGATATGACACATCCTAGTATTACGAATCGGAGTCACCTAGTGCAG | 5560 fluorescence intensity (a.u.)
49 | GGGGTGACATAACTGAACAAGTTGGAGGATCTAAACGGGTCGGAGTCACCTAGTGCAG | 3180 fluorescence intensity (a.u.)
50 | CATCCCCAAACTCCGCCGCCGCCGCCGTCACCGCCGCTCGCGGAGTCACCTAGTGCAG | 3700 fluorescence intensity (a.u.)
51 | GCGCTAGTCCGTATGAACATGACGTGAACATAATCTCGACCGGAGTCACCTAGTGCAG | 5120 fluorescence intensity (a.u.)
52 | TTTCATGCATGTGTCAATTTATTTGATAACCATAGTCCACCGGAGTCACCTAGTGCAG | 33200 fluorescence intensity (a.u.)
53 | CAGGAGGGGTGGGTTGTTGTTCGGTGGTGTGGACCCGTGCCGGAGTCACCTAGTGCAG | 4020 fluorescence intensity (a.u.)
54 | GAGGCAGAGGGGTGGCAAACAAAACCCAACGCCATCGCAGCGGAGTCACCTAGTGCAG | 3360 fluorescence intensity (a.u.)
